Source: patent US20140050732A1
No constants are given. Whether binding was seen depends on the method and setting. Some entries that bind do so weakly or less than the wild type.

Experiments:
[1] = target: T1, bovine CD40 receptor (Bos taurus (bovine)) (UniProt Q28203); assay: western blot of bovine PBMC lysates with purified monoclonal antibodies
T1 sequence: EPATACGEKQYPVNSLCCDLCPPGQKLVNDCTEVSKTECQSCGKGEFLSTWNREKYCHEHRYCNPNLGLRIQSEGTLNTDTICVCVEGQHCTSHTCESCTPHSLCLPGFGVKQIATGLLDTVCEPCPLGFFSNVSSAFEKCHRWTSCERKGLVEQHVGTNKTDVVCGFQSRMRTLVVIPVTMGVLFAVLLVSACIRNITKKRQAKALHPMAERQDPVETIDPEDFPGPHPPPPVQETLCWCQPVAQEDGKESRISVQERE

[2] = target: T1, bovine CD40 receptor (Bos taurus (bovine)); assay: flow cytometry, surface staining of bovine CD40-transfected COS-7 cells
[3] = target: T1, bovine CD40 receptor (Bos taurus (bovine)); assay: flow cytometry on bovine CD40-transfected COS-7 cells

Measured: binding

B1: E1 monoclonal anti-bovine CD40 antibody (antibody, V domains shown)
VH: EVKLVESGGVLVKPGGSLKLSCAASGFTFSSYAMSWVRQTPEKRLEWVASIGSGGGTYYPDSVKGRFTISRNNARNILYLQMSSLRSEDTAMYYCARAYYRNHRGSVMDYWGQGTSVTVSS
VL: DIVLTQSPASLAVSLGQRATISCKASQTVDYDGDSYMNWYQQKPGQPPKVLIYSASNLESGIPARFSGSGSGTDFTLNIHPVEEEDAATYYCQQSTEDPPTFGGGTKLEIK
binds: all assays above
